From article PMC8484674
Results are given in words; binding and its absence hold for the method and conditions named. Binding seen in cells or lysates may run through a third protein. Some binding calls cover weakened binding; strength is not graded here.

By UniProt entry, the sequences of proteins in these tests, tags left out.
UniProt Q14145: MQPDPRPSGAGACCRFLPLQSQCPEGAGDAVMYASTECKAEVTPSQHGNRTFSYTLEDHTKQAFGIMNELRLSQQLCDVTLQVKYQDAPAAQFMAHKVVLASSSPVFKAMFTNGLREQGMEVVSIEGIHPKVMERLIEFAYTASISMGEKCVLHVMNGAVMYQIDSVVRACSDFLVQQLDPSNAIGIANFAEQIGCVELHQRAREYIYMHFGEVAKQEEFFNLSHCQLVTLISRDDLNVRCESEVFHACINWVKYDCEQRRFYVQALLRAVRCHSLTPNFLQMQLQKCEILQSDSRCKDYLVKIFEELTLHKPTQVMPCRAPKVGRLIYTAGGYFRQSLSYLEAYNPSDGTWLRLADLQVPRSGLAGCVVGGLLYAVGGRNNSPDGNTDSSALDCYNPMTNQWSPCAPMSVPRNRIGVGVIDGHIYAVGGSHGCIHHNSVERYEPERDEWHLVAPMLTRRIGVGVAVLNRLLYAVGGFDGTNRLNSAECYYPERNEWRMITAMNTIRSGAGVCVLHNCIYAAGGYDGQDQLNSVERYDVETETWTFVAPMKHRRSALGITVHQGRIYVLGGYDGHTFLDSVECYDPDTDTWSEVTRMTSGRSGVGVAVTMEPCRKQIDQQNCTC

Legend:
[1] = biological target: endogenous Keap1 (human (endogenous in HEK293T)) (UniProt Q14145); assay: co-IP; HEK293T treated with DMSO or HNE (12 uM) for 1.5 h; lysate (50 mM Tris pH 7.6, 150 mM NaCl, 1% Triton-X-100) on mouse anti-Keap1 bound protein A resin at 4 °C overnight, western blot
His6-Halo-TEV-Keap1 = His6-Halo-TEV-Keap1 (UniProt Q14145); assay: pull-down; HEK293T transfected with His6-Halo-TeV-Keap1 or empty vector, treated with 25 uM HNE-alkyne or DMSO for 1.5 h; lysate on TALON resin 1 h at 4 °C, imidazole elution, western blot; the paper calls it co-immunoprecipitation/western blot

binding [1]: binds
binding (His6-Halo-TEV-Keap1): binds
B1: Wdr1 (protein, UniProt O75083 1-606)
chain: MPYEIKKVFASLPQVERGVSKIIGGDPKGNNFLYTNGKCVILRNIDNPALADIYTEHAHQVVVAKYAPSGFYIASGDVSGKLRIWDTTQKEHLLKYEYQPFAGKIKDIAWTEDSKRIAVVGEGREKFGAVFLWDSGSSVGEITGHNKVINSVDIKQSRPYRLATGSDDNCAAFFEGPPFKFKFTIGDHSRFVNCVRFSPDGNRFATASADGQIYIYDGKTGEKVCALGGSKAHDGGIYAISWSPDSTHLLSASGDKTSKIWDVSVNSVVSTFPMGSTVLDQQLGCLWQKDHLLSVSLSGYINYLDRNNPSKPLHVIKGHSKSIQCLTVHKNGGKSYIYSGSHDGHINYWDSETGENDSFAGKGHTNQVSRMTVDESGQLISCSMDDTVRYTSLMLRDYSGQGVVKLDVQPKCVAVGPGGYAVVVCIGQIVLLKDQRKCFSIDNPGYEPEVVAVHPGGDTVAIGGVDGNVRLYSILGTTLKDEGKLLEAKGPVTDVAYSHDGAFLAVCDASKVVTVFSVADGYSENNVFYGHHAKIVCLAWSPDNEHFASGGMDMMVYVWTLSDPETRVKIQDAHRLHHVSSLAWLDEHTLVTTSHDASVKEWTITY
